# From paper PMC8419995, “In vitro and in vivo efficacy of thiacloprid against Echinococcus multilocularis” (Parasites & Vectors, 2021)
# Assay: Blood cell analysis of mice infected with E. multilocularis
# Assay type: in vivo
# Conditions: infected BALB/c mice, 6 weeks
smiles,measurement,setting,value
"CCCSc1ccc2nc(NC(=O)OC)[nH]c2c1 [ABZ, albendazole]",Eos,ABZ 100 mg/kg/day orally,1.71±0.59%
same,HGB,ABZ 100 mg/kg/day orally,203.50 ± 19.66 g/L
same,Lym,ABZ 100 mg/kg/day orally,22.49±6.83 %
same,Neu,ABZ 100 mg/kg/day orally,73.19±8.66 %
same,RBC,ABZ 100 mg/kg/day orally,9.60±1.12 1012/L
same,WBC,ABZ 100 mg/kg/day orally,27.84±4.27* 109/L
N#C/N=C1\SCCN1Cc1ccc(Cl)nc1 [thiacloprid],Eos,Thia 15 (15 mg/kg/day orally),4.37±1.32 %
same,HGB,Thia 15 (15 mg/kg/day orally),196.50 ± 11.93 g/L
same,Lym,Thia 15 (15 mg/kg/day orally),41.27±10.25 %
same,Neu,Thia 15 (15 mg/kg/day orally),47.43±12.25%
same,RBC,Thia 15 (15 mg/kg/day orally),9.22±0.60 1012/L
same,WBC,Thia 15 (15 mg/kg/day orally),25.10±3.86* 109/L
same,Eos,Thia 30 (30 mg/kg/day orally),2.45±0.71%
same,HGB,Thia 30 (30 mg/kg/day orally),190.8 ± 35.86 g/L
same,Lym,Thia 30 (30 mg/kg/day orally),50.38±15.14 %
same,Neu,Thia 30 (30 mg/kg/day orally),49.52±7.23%
same,RBC,Thia 30 (30 mg/kg/day orally),8.71±1.50 1012/L
same,WBC,Thia 30 (30 mg/kg/day orally),27.60±3.10* 109/L

# Marks after values point to notes of the source that are not given here.
